# Library screen at single concentrations

Amino acid sequences for entries named in this document (tags omitted).
UniProt I6X8D2, whole entry: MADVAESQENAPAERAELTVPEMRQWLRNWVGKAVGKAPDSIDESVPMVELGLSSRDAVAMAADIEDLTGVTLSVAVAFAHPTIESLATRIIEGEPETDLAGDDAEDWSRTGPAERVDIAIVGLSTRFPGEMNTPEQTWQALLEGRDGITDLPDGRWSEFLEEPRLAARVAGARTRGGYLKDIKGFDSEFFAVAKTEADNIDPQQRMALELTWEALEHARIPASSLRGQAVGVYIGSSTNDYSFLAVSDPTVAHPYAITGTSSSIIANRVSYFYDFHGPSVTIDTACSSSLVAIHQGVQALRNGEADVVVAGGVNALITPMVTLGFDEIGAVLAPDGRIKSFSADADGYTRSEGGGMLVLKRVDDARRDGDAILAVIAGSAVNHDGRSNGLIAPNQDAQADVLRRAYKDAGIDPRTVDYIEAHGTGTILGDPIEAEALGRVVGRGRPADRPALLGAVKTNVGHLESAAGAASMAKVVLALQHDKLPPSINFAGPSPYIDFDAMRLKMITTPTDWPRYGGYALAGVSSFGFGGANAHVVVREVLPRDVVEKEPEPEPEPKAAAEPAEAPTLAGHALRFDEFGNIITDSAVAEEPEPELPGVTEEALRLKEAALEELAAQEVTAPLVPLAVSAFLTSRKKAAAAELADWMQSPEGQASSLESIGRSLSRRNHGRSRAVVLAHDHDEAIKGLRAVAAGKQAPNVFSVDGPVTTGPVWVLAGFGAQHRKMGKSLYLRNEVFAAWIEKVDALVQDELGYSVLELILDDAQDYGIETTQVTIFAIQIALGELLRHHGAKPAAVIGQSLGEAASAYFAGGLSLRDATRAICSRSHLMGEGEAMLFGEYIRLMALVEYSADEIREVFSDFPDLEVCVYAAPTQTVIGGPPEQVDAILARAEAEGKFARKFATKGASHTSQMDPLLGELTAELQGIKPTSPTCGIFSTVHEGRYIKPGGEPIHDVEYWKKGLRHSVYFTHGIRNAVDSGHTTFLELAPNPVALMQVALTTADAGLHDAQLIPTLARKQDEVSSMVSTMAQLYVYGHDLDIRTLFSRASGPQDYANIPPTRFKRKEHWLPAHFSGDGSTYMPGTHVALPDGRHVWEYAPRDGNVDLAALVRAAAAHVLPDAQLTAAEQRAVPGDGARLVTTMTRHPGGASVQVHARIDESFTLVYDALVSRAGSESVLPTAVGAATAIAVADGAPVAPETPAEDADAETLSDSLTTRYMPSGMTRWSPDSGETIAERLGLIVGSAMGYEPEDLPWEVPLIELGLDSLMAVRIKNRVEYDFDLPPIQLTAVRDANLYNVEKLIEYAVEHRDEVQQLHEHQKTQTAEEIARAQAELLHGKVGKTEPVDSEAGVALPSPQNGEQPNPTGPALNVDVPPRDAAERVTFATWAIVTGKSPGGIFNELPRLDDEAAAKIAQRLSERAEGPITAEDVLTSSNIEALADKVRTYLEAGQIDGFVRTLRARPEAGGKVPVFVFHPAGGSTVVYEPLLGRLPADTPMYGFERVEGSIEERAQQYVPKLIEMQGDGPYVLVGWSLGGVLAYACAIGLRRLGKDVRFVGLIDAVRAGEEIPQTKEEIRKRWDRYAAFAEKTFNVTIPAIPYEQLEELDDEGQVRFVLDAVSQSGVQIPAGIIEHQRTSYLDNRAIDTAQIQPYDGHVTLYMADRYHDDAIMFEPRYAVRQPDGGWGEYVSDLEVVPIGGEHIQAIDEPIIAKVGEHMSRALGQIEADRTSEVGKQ

Source: ChEMBL document CHEMBL3988442, “University of Dundee, Small-Polar-MMV Screening Library” (2021).

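Polyketide synthase Pks13, Mycobacterium tuberculosis (UniProt I6X8D2). Enzyme assay of the thioesterase domain of polyketide synthase 13; the read-out is not stated. Tested at 30 µM. The record gives no direction; the compounds picked for IC50 retests had high values, so higher reads as stronger inhibition. Of about 67,000 compounds tested this way, about 300 (0.46%) reached 50% or more in at least one test.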

The filed quantity is “Percent Effect” (%). The controls that fix the scale are not given in the record; negative values are as filed. This is an unselected part of the compounds tested.

- COc1cc(CNC(=O)Nc2nnc(C(F)(F)F)s2)ccc1O | -15.26%
- CCc1ccc(CN2CCC3(CC2)C(=O)N(C)CCN3CC)cc1 | -28.7%
- CC(=O)N1CCc2ccccc2C1CC(=O)NCc1nnc(C)o1 (stereo not shown) | -12.94%
- O=C(C1CCCC1)N1CCC2(CC1)COCCN2CC1CC1 | 23.37%
- c1ccc(OCc2noc(CN3CCN(C4CCCC4)CC3)n2)cc1 | -6.919%
- Cc1nc2ccccc2n1Cc1cc(C(=O)N(C)C2CCOC2)n[nH]1 (stereo not shown) | -6.076%
- Cc1nc(CN2CCCC(N(C)Cc3nc(C)c(C)o3)C2)no1 (stereo not shown) | 8.6%
- O=C(c1c2c(NCC3CC3)ncnc2n2ccccc12)N1CCOCC1 | -7.7%
- CC(=O)N1CCCN(C(=O)c2ccc(Sc3ccccn3)cc2)CC1 | -2.594%
- CCC(c1ccc(F)cc1F)S(=O)(=O)CCO (stereo not shown) | -7.053%
- CCc1ccc(CN2CCN(CCOC)[C@@H]3CS(=O)(=O)C[C@@H]32)cc1 | -4.339%
- O=C(NCCOc1ccc2c(c1)OCO2)N1CCCC(CO)C1 (stereo not shown) | -6.351%
- CCN1CCN(c2ccc(CNC(=O)c3ccccc3F)cn2)CC1 | -17.13%
- CS(=O)(=O)NCCCNC(=O)c1cnc(-c2ccsc2)s1 | -5.492%
- CC(C)CS(=O)(=O)N1CCC2(CC1)CCn1c(-c3cnn(C)c3)cnc12 | 32.48%
- COC(=O)CS(=O)(=O)CCC(=O)N1CCCC1c1ccsc1 (stereo not shown) | 17.7%
- Cc1c(CC(=O)N2CCN(C(C)C)CC2)nnn1-c1ccccc1 | -14%
- O=C(COCc1ccccc1Cl)N1CCCC(n2cccn2)C1 (stereo not shown) | -19.96%
- CNc1cc2c(nn1)CCN(C(=O)c1cc(F)cc(F)c1)C2 | -12.72%
- Cc1ccc(-c2nc(CN3CCN(C(=O)C4CC4)CC3)cs2)o1 | -8.032%
- O=C1[C@H]2CC[C@H](CN(c3ncnc4ccsc34)C2)N1CC1CC1 | 90.78%
- CCOCCCn1c(NC(=O)c2cnc(C)cn2)nc2ccccc21 | 8.374%
- Cc1cc2c(c(=O)n1CCC(=O)O)C=CC(C)(C)O2 | 8.234%
- Cc1nc2n(n1)CC(NCc1nc(-c3ccccn3)no1)CC2 (stereo not shown) | -5.356%
- Cc1nc(CN2CCCC(NCCOCC(F)(F)F)C2)no1 (stereo not shown) | -24.84%
- Cc1ccc(N2CC[C@H]3OCC[C@@]3(C(=O)NC(C)C)C2)nn1 | -1.22%
- CN1CC(=O)N(c2cccc(F)c2)CC12CCN(CCO)C2 (stereo not shown) | -29.05%
- O=C1O[C@@H]2CN(Cc3ccccc3)C[C@@H]2N1CCCN1CCOCC1 | -4.878%
- O=C(Nc1nnc(C2CC2)s1)NC1CCOc2ccccc21 (stereo not shown) | 20.6%
- Cc1cc(CN(C)CC2(O)CCCN(CCC3CCCCC3)C2=O)no1 (stereo not shown) | 23.37%
- CS(=O)(=O)c1ccc(CNC(=O)N2CCC(C(N)=O)C2)cc1 (stereo not shown) | -24.01%
- O=C(NC1CC1)[C@H]1CC[C@@H]2[C@@H](CCN2c2ncc(F)cn2)O1 | -1.515%
- CCc1ccc(CN2CCC(=O)N(CC3CC3)C(C(C)C)C2)nc1 (stereo not shown) | -74.09%
- Cc1cc(C)cc(-n2ncc3c2CCCC3N)c1 (stereo not shown) | -31.56%
- COCC(=O)Nc1ccc([C@@H](O)[C@H]2COCC(=O)N2CC(C)C)cc1 | -31.32%
- c1ccn2c(C3CCCN3Cc3nc(C4CC4)no3)nnc2c1 (stereo not shown) | -13.53%
- Cn1ccc(N2CCCC(NC(=O)c3ccsc3)C2=O)n1 (stereo not shown) | -0.7534%
- Cc1ccc(CN2CC3(CCN(C(=O)Cc4ccc(Cl)cc4)C3)C2)o1 | -41.98%
- CC(C)N1Cc2c(C(=O)N3CCN(C)CC3)nn(C)c2C1 | -18.59%
- CN(Cc1cnn(C)c1)C(=O)CCS(=O)(=O)c1ccc2c(c1)OCCO2 | -7.52%
- CCc1nc(C)c(C(=O)N2C[C@H]3CC[C@@H]2CN(S(=O)(=O)N(C)C)C3)s1 | -18.47%
- CN1C(=O)C(C)(C)COc2cc(NS(=O)(=O)Cc3ccccc3)ccc21 | -11.7%
- CC(C)(C)C(=O)NCCC(=O)NS(=O)(=O)c1cccc(C#N)c1 | -10.84%
- Cc1occc1C(=O)N1CCCC2(CCN(CCN3CCCC3)C2=O)C1 (stereo not shown) | -11.47%
- Cc1cc(C)n(CCCNC(=O)C2CCCO2)n1 (stereo not shown) | -15.53%
- CCOCC1CC2(CCN(C(=O)CC3=CCCCC3)CC2)CO1 (stereo not shown) | -18.36%
- Cc1ccc(N2CCC3(CCN(C(=O)c4ccccn4)CC3)CC2)nn1 | -6.659%
- c1cncc(CCc2nc(C3CC3)nn2-c2ccc3c(c2)OCCO3)c1 | -31.54%
- Cc1cnc(N2CCC3(CCCCN3C)C2)nc1 (stereo not shown) | -10.85%
- COc1ccccc1OCC(=O)Nc1ncccc1OC(F)F | -2.339%
- NCCn1nc(C2CCN(C(=O)CC3CCCCC3)C2)c2nccnc21 (stereo not shown) | -24.06%
- CCN1Cc2nc(OC)c(CNC(=O)C3CCS(=O)(=O)CC3)cc2C1=O | 1.633%
- O=C(NS(=O)(=O)c1cccnc1)C1CC(c2ccccc2)=NO1 (stereo not shown) | -28.36%
- O=C(Nc1ccc(F)cc1F)NC1(CO)CCOCC1 | 6.159%

Some entries from above, unchanged:

| Compound | percent effect |
|---|---|
| `CCN1Cc2nc(OC)c(CNC(=O)C3CCS(=O)(=O)CC3)cc2C1=O` | 1.633 |
| `Cc1nc2ccccc2n1Cc1cc(C(=O)N(C)C2CCOC2)n[nH]1` (stereo not shown) | -6.076 |
| `COc1ccccc1OCC(=O)Nc1ncccc1OC(F)F` | -2.339 |
| `Cc1cc(C)n(CCCNC(=O)C2CCCO2)n1` (stereo not shown) | -15.53 |